Source: PMC6731319
Results are given in words; binding and its absence hold for the method and conditions named.

Molecular target: MBP-HJURP^541–748 (human) (UniProt Q8NCD3)
Assay: AUC; sedimentation velocity, isolated MBP-HJURP fragments at 5 µM, buffer HST300 (30 mM HEPES pH 7.5, 300 mM NaCl, 1 mM TCEP), 42,000 rpm, 20 °C (Supplementary Fig. 2b); both purified

Substance: MBP-HJURP^541–748 (from UniProt Q8NCD3 541-748) (domain or fragment)
- binding: no binding (tested: 5 µM)
